# Experimental data published in the supplement of paper PMC8728848.
# This is one part of the list.
# Tests used:
# Assay in all cases: glycan array binding signal (z-score within array); higher = stronger binding
# Conditions in all cases: glycan notation: IUPAC condensed, linker removed
# [1] = target: GlcNAc(b1-3)Gal(b1-4)GlcNAc(b1-3)Gal(b1-4)GlcNAc(b1-3)GalNAc
# Outline: (§1)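 Columns mapping to the same glycan were averaged after glycan names were converted to IUPAC-condensed notation. The data come from 3228 arrays in the Consortium for Functional Glycomics database, limited to those with an available protein sequence. Binding is reported as a within-array Z-score averaged across arrays of one protein sequence and across linkers.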
# [2] = target: GlcNAc(b1-3)Gal(b1-4)GlcNAc(b1-3)GalNAc
# Outline: as §1
# [3] = target: GlcNAc(b1-3)Gal(b1-4)GlcNAc(b1-3)[GlcNAc(b1-3)Gal(b1-4)GlcNAc(b1-3)]GalNAc
# Outline: as §1
# [4] = target: GlcNAc(b1-3)Gal(b1-4)GlcNAc(b1-6)[Gal(b1-3)]GalNAc
# Outline: as §1
# [5] = target: GlcNAc(b1-3)Gal(b1-4)GlcNAc(b1-6)[GlcNAc(b1-3)Gal(b1-3)]GalNAc
# Outline: as §1
# [6] = target: GlcNAc(b1-3)Gal(b1-4)GlcNAc(b1-6)[GlcNAc(b1-3)]Gal(b1-4)GlcNAc
# Outline: as §1
# GlcNAc(b1-3)GalNAc = target: GlcNAc(b1-3)GalNAc
# Outline: as §1
# GlcNAc(b1-3)Man = target: GlcNAc(b1-3)Man
# Outline: as §1
# [7] = target: GlcNAc(b1-3)[GlcNAc(b1-4)][GlcNAc(b1-6)]GlcNAc
# Outline: as §1
# [8] = target: GlcNAc(b1-3)[GlcNAc(b1-6)]Gal(b1-4)GlcNAc
# Outline: as §1
# [9] = target: GlcNAc(b1-3)[GlcNAc(b1-6)]GalNAc
# Outline: as §1
# [10] = target: GlcNAc(b1-4)Gal(b1-4)GlcNAc
# Outline: as §1
# GlcNAc(b1-4)GlcNAc = target: GlcNAc(b1-4)GlcNAc
# Outline: as §1
# [11] = target: GlcNAc(b1-4)GlcNAc(b1-4)GlcNAc
# Outline: as §1
# [12] = target: GlcNAc(b1-4)GlcNAc(b1-4)GlcNAc(b1-4)GlcNAc(b1-4)GlcNAc
# Outline: as §1
# [13] = target: GlcNAc(b1-4)GlcNAc(b1-4)GlcNAc(b1-4)GlcNAc(b1-4)GlcNAc(b1-4)GlcNAc
# Outline: as §1
# [14] = target: GlcNAc(b1-4)[GlcNAc(b1-6)]GalNAc
# Outline: as §1
# [15] = target: GlcNAc(b1-6)Gal(b1-4)GlcNAc
# Outline: as §1
# GlcNAc(b1-6)GalNAc = target: GlcNAc(b1-6)GalNAc
# Outline: as §1
# [16] = target: GlcNAc6S(b1-3)Gal(b1-4)GlcNAc
# Outline: as §1
# Kdn(a2-3)Gal(b1-3)GalNAc = target: Kdn(a2-3)Gal(b1-3)GalNAc
# Outline: as §1
# Kdn(a2-3)Gal(b1-3)GlcNAc = target: Kdn(a2-3)Gal(b1-3)GlcNAc
# Outline: as §1
# Kdn(a2-3)Gal(b1-4)Glc = target: Kdn(a2-3)Gal(b1-4)Glc
# Outline: as §1
# Kdn(a2-3)Gal(b1-4)GlcNAc = target: Kdn(a2-3)Gal(b1-4)GlcNAc
# Outline: as §1
# [17] = target: Kdn(a2-3)Gal(b1-4)[Fuc(a1-3)]GlcNAc
# Outline: as §1
# Kdn(a2-6)Gal(b1-4)GlcNAc = target: Kdn(a2-6)Gal(b1-4)GlcNAc
# Outline: as §1
# [18] = target: Man(a1-2)Man(a1-2)Man(a1-3)Man
# Outline: as §1
# [19] = target: Man(a1-2)Man(a1-2)Man(a1-6)[Man(a1-3)]Man
# Outline: as §1
# Man(a1-2)Man(a1-3)Man = target: Man(a1-2)Man(a1-3)Man
# Outline: as §1
# [20] = target: Man(a1-2)Man(a1-3)[Man(a1-2)Man(a1-6)]Man
# Outline: as §1
# [21] = target: Man(a1-2)Man(a1-3)[Man(a1-2)Man(a1-6)]Man(a1-6)[Man(a1-2)Man(a1-2)Man(a1-3)]Man
# Outline: as §1
# [22] = target: Man(a1-2)Man(a1-3)[Man(a1-2)Man(a1-6)]Man(a1-6)[Man(a1-2)Man(a1-2)Man(a1-3)]Man(b1-4)GlcNAc(b1-4)GlcNAc
# Outline: as §1
# [23] = target: Man(a1-2)Man(a1-3)[Man(a1-6)]Man(a1-6)[Man(a1-2)Man(a1-3)]Man(b1-4)GlcNAc(b1-4)GlcNAc
# Outline: as §1
# [24] = target: Man(a1-2)Man(a1-6)[Man(a1-3)]Man(a1-6)[Man(a1-2)Man(a1-2)Man(a1-3)]Man
# Outline: as §1
# [25] = target: Man(a1-2)Man(a1-6)[Man(a1-3)]Man(a1-6)[Man(a1-2)Man(a1-2)Man(a1-3)]Man(b1-4)GlcNAc(b1-4)GlcNAc
# Outline: as §1
# Man(a1-3)[Man(a1-6)]Man = target: Man(a1-3)[Man(a1-6)]Man
# Outline: as §1
# [26] = target: Man(a1-3)[Man(a1-6)]Man(a1-6)[Man(a1-2)Man(a1-3)]Man(b1-4)GlcNAc(b1-4)GlcNAc
# Outline: as §1
binder,measurement,setting,value
PX9961Q-bfa-504-27-504 (Bacteroides fragilis) (protein) NDWLDRKPADGIPSEDAITNYNDALTARTGMYDGIQGNSNATSYYGARMFYYGDVRADDMQARTQGMRSSSCYEMLYTVDDAPNMWNIPYNVIRRANRLIEAINEKKVTDATEAQIGKIYSEALVVRALVHFDLVRIYGMPYTADNGASLGVPVIVKPLERNDLPSRNTVAEVYTQVITDLTDAINSGYLAKDQTPGYINEWAAKALLTRVYLTKGDNENALKVAEDIITNSPYKLWTNEEYVNAWYKSNGAHTNEMIFEVVNASNDDWTDRNGIAYLLNENGYADAIVTKSFMNMLSQDPKDVRIGMVLPAQYDKDLQEEYGDAKIFINKFPADKDDVGEMRLNNLPLLRLSEVYLSAAEAAAKLGGHQDKAAKYLNEIVQRANPEAKAISEADATVERIILERRKEMIGEGQRYFDALRNNETIVRYKDEGDKGYHYSLIKESQSFDRTYFRAILPIPVDETNVNPNLRAQQNPGY,glycan array binding signal (z-score),[1],-0.298
same,glycan array binding signal (z-score),[2],0.039
same,glycan array binding signal (z-score),[3],-0.103
same,glycan array binding signal (z-score),[4],-0.391
same,glycan array binding signal (z-score),[5],1.69
same,glycan array binding signal (z-score),[6],0.152
same,glycan array binding signal (z-score),GlcNAc(b1-3)GalNAc,-0.328
same,glycan array binding signal (z-score),GlcNAc(b1-3)Man,0.083
same,glycan array binding signal (z-score),[7],-0.908
same,glycan array binding signal (z-score),[8],-1.1
same,glycan array binding signal (z-score),[9],-0.04
same,glycan array binding signal (z-score),[10],-0.752
same,glycan array binding signal (z-score),GlcNAc(b1-4)GlcNAc,0.278
same,glycan array binding signal (z-score),[11],-0.077
same,glycan array binding signal (z-score),[12],-0.574
same,glycan array binding signal (z-score),[13],-0.594
same,glycan array binding signal (z-score),[14],-0.549
same,glycan array binding signal (z-score),[15],0.387
same,glycan array binding signal (z-score),GlcNAc(b1-6)GalNAc,0.361
same,glycan array binding signal (z-score),[16],-0.463
same,glycan array binding signal (z-score),Kdn(a2-3)Gal(b1-3)GalNAc,0.008
same,glycan array binding signal (z-score),Kdn(a2-3)Gal(b1-3)GlcNAc,-0.992
same,glycan array binding signal (z-score),Kdn(a2-3)Gal(b1-4)Glc,-0.215
same,glycan array binding signal (z-score),Kdn(a2-3)Gal(b1-4)GlcNAc,0.306
same,glycan array binding signal (z-score),[17],1.91
same,glycan array binding signal (z-score),Kdn(a2-6)Gal(b1-4)GlcNAc,0.757
same,glycan array binding signal (z-score),[18],0.58
same,glycan array binding signal (z-score),[19],0.712
same,glycan array binding signal (z-score),Man(a1-2)Man(a1-3)Man,0.177
same,glycan array binding signal (z-score),[20],-0.309
same,glycan array binding signal (z-score),[21],-1.15
same,glycan array binding signal (z-score),[22],0.272
same,glycan array binding signal (z-score),[23],-0.67
same,glycan array binding signal (z-score),[24],-0.348
same,glycan array binding signal (z-score),[25],0.616
same,glycan array binding signal (z-score),Man(a1-3)[Man(a1-6)]Man,-1.24
same,glycan array binding signal (z-score),[26],-0.452

# Part of the list above, as tab-separated lines.
binder	measurement	setting	value
PX9961Q-bfa-504-27-504 (Bacteroides fragilis) (protein) NDWLDRKPADGIPSEDAITNYNDALTARTGMYDGIQGNSNATSYYGARMFYYGDVRADDMQARTQGMRSSSCYEMLYTVDDAPNMWNIPYNVIRRANRLIEAINEKKVTDATEAQIGKIYSEALVVRALVHFDLVRIYGMPYTADNGASLGVPVIVKPLERNDLPSRNTVAEVYTQVITDLTDAINSGYLAKDQTPGYINEWAAKALLTRVYLTKGDNENALKVAEDIITNSPYKLWTNEEYVNAWYKSNGAHTNEMIFEVVNASNDDWTDRNGIAYLLNENGYADAIVTKSFMNMLSQDPKDVRIGMVLPAQYDKDLQEEYGDAKIFINKFPADKDDVGEMRLNNLPLLRLSEVYLSAAEAAAKLGGHQDKAAKYLNEIVQRANPEAKAISEADATVERIILERRKEMIGEGQRYFDALRNNETIVRYKDEGDKGYHYSLIKESQSFDRTYFRAILPIPVDETNVNPNLRAQQNPGY	glycan array binding signal (z-score)	Kdn(a2-3)Gal(b1-3)GalNAc	0.008
same	glycan array binding signal (z-score)	Kdn(a2-3)Gal(b1-3)GlcNAc	-0.992
